Drawing on article PMC7747705, this text covers binding for 1 substance.

The chains behind the UniProt entries cited, without tags or fusion partners.
UniProt P08393: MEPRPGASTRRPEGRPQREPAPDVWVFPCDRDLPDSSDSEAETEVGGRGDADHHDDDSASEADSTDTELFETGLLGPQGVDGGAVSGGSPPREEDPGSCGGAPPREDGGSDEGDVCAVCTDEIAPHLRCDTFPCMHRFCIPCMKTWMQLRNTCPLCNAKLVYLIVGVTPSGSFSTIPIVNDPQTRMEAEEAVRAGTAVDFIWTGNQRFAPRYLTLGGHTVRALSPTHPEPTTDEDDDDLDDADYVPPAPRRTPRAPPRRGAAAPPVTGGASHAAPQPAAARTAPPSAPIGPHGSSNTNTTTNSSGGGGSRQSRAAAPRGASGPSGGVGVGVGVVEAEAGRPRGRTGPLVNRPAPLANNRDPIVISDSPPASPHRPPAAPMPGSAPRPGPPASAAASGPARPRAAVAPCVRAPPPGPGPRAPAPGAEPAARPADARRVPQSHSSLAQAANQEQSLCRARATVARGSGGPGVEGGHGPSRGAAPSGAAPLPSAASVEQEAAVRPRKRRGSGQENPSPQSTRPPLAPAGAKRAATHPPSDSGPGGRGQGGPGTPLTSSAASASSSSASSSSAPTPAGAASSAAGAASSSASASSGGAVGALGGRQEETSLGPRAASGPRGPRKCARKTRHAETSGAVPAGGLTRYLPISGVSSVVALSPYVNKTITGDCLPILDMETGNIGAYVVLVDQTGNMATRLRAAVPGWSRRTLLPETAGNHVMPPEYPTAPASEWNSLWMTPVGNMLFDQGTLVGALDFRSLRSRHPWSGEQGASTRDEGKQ

These are yes or no findings as the source states them, for the method shown. In cells and extracts the contact can be indirect. Tags and fused reporters may be left off the sequences shown.

This experiment has as its target T1, FLAG-tagged TBK1 (TANK-binding kinase 1) (UniProt Q9UHD2).
T1 sequence: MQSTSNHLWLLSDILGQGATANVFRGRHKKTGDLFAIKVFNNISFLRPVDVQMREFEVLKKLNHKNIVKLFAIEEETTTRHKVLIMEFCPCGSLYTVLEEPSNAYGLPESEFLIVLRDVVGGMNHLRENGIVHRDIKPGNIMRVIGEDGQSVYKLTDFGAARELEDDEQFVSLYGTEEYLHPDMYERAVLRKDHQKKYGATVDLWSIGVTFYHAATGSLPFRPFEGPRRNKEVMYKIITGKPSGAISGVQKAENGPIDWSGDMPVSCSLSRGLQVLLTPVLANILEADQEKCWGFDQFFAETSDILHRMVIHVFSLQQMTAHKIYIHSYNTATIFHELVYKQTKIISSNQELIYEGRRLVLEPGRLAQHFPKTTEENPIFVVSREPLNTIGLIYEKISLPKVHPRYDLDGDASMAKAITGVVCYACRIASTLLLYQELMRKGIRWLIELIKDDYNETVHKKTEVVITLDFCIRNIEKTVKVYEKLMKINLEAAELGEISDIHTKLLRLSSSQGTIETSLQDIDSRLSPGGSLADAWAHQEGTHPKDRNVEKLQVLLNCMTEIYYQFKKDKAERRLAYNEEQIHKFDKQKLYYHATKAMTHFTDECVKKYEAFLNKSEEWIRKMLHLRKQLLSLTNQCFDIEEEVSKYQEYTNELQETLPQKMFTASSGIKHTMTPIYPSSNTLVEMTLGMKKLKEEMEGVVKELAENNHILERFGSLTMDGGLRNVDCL
Kind of experiment: co-IP; 293T cells co-transfected with ICP0 and FLAG-tagged TBK1; extracts 18 h after transfection immunoprecipitated with anti-FLAG antibody (anti-IgG as control); blotted with anti-FLAG and anti-ICP0; radioimmunoprecipitation lysis buffer.

Turning to “infected cell protein 0 (ICP0) of herpes simplex virus type 1 (from UniProt P08393 1-775)”, the binding entry is listed as “no binding”.
